Primary screen of a compound library

The chains behind the UniProt entries cited, without tags or fusion partners.
UniProt P9WPC5, whole entry: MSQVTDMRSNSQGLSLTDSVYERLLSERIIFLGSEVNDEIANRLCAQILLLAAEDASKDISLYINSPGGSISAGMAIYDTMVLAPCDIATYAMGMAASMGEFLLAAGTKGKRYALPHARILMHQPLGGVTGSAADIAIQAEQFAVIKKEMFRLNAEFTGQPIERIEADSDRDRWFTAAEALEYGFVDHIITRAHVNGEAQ
UniProt P9WPC3, whole entry partner: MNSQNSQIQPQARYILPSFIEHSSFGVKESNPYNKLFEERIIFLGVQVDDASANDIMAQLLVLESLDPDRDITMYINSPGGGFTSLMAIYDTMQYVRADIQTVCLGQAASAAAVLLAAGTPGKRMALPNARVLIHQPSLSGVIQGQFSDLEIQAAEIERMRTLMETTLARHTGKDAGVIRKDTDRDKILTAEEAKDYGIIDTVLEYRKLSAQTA

Measurements from “University of Dundee, Small-Polar-MMV Screening Library” (2021), ChEMBL document CHEMBL3988442.

Each number is a percent effect as filed.
How 0% and 100% were set is not recorded. Most values in the screen are low, and negative values occur.
This is an unselected part of the compounds tested.
A dash means the value is not listed here; it may have been measured.

Toxoplasma: 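Assay of Toxoplasma gondii numbers, read through their beta-galactosidase reporter with a colour substrate. Tested at 10 µM. Higher reads as fewer parasites (inferred from which compounds were picked for retests). Size under these conditions: about 67,000 compounds, about 260 of them at 50% or above in at least one test.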
ClpP1P2: 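ClpP1P2, Mycobacterium tuberculosis (UniProt P9WPC5 and UniProt P9WPC3). Protease assay of ClpP1P2, read by the AMC dye that it sets free. Concentration: 50 µM. Direction is inferred from only a few compounds that gave an IC50; most scored high, so higher reads as stronger inhibition. Most other retested compounds had strongly negative values. Of about 69,000 compounds tested this way, about 10 (0.015%) reached 50% or more in at least one test.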
Leishmania in macrophages: 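Cell assay of Leishmania donovani living inside macrophages; the read-out is not stated. Concentration: 30 µM. Direction is inferred from retests: higher values go with stronger inhibition. Of about 69,000 compounds tested this way, about 1,000 (1.5%) reached 50% or more in at least one test.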
T. brucei: 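Whole-parasite assay of Trypanosoma brucei over 72 hours; the read-out is not stated. Compounds at 30 µM. Direction is inferred from retests: higher values go with stronger inhibition. Values scatter widely below zero; nearly all retest evidence comes from the higher of the two concentrations used. Size under these conditions: about 64,000 compounds, about 940 of them at 50% or above in at least one test.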

Compound | Toxoplasma | ClpP1P2 | Leishmania in macrophages | T. brucei
Cn1c(C2CC2)nc2c1CCN(Cc1nc(-c3ccsc3)no1)C2 | -2.393 | -42.48 | -2.271 | -7.992
CCN(c1ccsc1C(=O)N1CCSCC1)S(=O)(=O)c1ccccc1 | -8.059 | 1.441 | 32.31 | -17.43
Cn1nc(C(=O)NC2(c3ccccc3)CCC2)ccc1=O | 6.097 | -4.77 | 43.07 | -1.918
CNC(=O)c1cccc(CCNS(C)(=O)=O)c1 | -5.622 | -0.7802 | 7.469 | -13.08
CC[C@@H](CO)NC(=O)c1coc(COc2ccc(OC)cc2)n1 | 1.648 | 3.09 | 24.45 | 23.37
Cc1nn(C)c(C)c1C1CCCN1C(=O)CCCc1ccccn1 (configuration not stated) | 17.21 | 5.701 | 23.13 | -
CCCC(C)N(C)Cc1nnc(-c2ccc(Br)s2)o1 (configuration not stated) | 24.78 | -14.63 | -0.3789 | -39.51
CSC(C)C(=O)N1CCC(Oc2cc(C)ccc2F)(C(=O)O)CC1 (configuration not stated) | 14.62 | -16.8 | 36.72 | -45.03
O=C1COC2(CCN(Cc3ccco3)CC2)CN1CCn1cccn1 | - | 3.212 | - | -
CCN(CC)CCCC(C)NC(=O)c1ccccc1-n1cccn1 (configuration not stated) | -1.633 | -11.08 | 6.994 | -19.14
CCOc1cc(CN(C)CCC(=O)OC)ccc1OC(F)F | 9.443 | -14.05 | 18.89 | -16.44
Cc1noc(Cl)c1CCC(=O)N1CCN(c2cnccn2)CC1 | 8.634 | -21.71 | 30.51 | 23.43
CCOCCN1CCN(C(C)C(=O)Nc2ccnn2C(C)C)CC1 (configuration not stated) | -4.792 | 1.116 | -13.88 | 13.96
Cc1nonc1CN(C)Cc1nc(-c2ccccc2Cl)oc1C | 5.885 | -6.484 | 9.501 | -0.4355
Cc1nnc(CSc2ccc(C(F)(F)F)cn2)o1 | 2.953 | 9.121 | 15.05 | -49.23
COc1ccc(OC)c(CNCc2c(C(C)C)nn(C)c2N(C)C)c1 | 24.86 | -32.85 | 16.44 | -
Cc1nn(C)c(C)c1CN(C)S(=O)(=O)c1c(C)n[nH]c1C | -4.877 | -5.935 | 10.51 | -3.012
[H][C@@]12COC[C@]1(COCc1cccc(C)n1)CN(C(=O)c1ccsc1)C2 | 2.417 | - | 1.316 | 8.267
O=C1CCC2(CCCN(Cc3nccs3)C2)N1CC1CC1 (configuration not stated) | - | 7.048 | - | -
CCN(C)c1ccc(C(=O)N(CCOC)Cc2ccccn2)cc1 | -3.084 | -12.57 | 17.16 | -3.522
CCC(C)CNc1ccc2oc(COC)nc2c1 (configuration not stated) | -0.8633 | 20.67 | -12.1 | 94.42
CN1CC(=O)N(c2ccsc2)CC12CCN(S(C)(=O)=O)C2 (configuration not stated) | - | -3.428 | - | -
CNC(=O)NCCc1csc2ccccc12 | -0.7115 | -8.867 | 15.09 | 1.036
Cl.c1nn(C2CCCCC2)cc1-c1cncn1CCCN1CCCCC1 | 13.69 | - | -48.1 | -11.05
CNC(=O)CN1CCC(NC(=O)Cc2ccccc2OC(C)C)CC1 | -4.202 | 13.25 | 21.68 | 0.251
CCc1nc(CC)n(CC(=O)NCc2ccccc2C)n1 | -10.63 | 2.822 | -3.052 | -24.64
CS(=O)(=O)NCc1cnc2n1CCN(Cc1ccsc1)CC2 | - | 4.944 | - | -
O=C(NCC1OCCc2cn(CC3CCOCC3)nc21)c1ccncc1 (configuration not stated) | - | -1.56 | - | -
CC(C)NC(=O)N1CCc2ncnc(-c3ccncc3)c2CC1.O=C(O)C(F)(F)F | 3.553 | - | -9.542 | -56.6
O=C1CC[C@H]2[C@H](CCN2c2ncc(F)cn2)N1c1ccccc1 | - | -4.81 | - | -
CCc1noc(CN(CC)C(=O)CC2C(=O)NCCN2CC(C)(C)C)n1 (configuration not stated) | -1.438 | 0.01825 | 13.87 | 1.935
O=C(Cn1cnc2cc3c(cc21)OCCCO3)NCCc1ccccc1 | 0.03005 | -3.794 | 16.9 | 0.2081
Cc1ncccc1Oc1nccnc1C1CCN(C(C)C)CC1 | 19.8 | -3.64 | 3.459 | 8.019
Cc1cc(C)nc(N2CCC(C(=O)Nc3n[nH]c(C)n3)CC2)n1 | 24.78 | 4.557 | -10.2 | -7.603
O=C(O)c1cc2c(nc1-c1cncnc1)CCN(C1CCOC1)CC2 (configuration not stated) | - | 13.49 | - | -
CS(=O)(=O)N1CCOCC2(CN(Cc3ccco3)CCO2)C1 (configuration not stated) | - | -11.74 | - | -
COCCN1CCC2(CCN(Cc3cccs3)CC2)C1=O.O=C(O)C(F)(F)F | 2.956 | - | 8.528 | -6.826
Cc1occc1C(=O)N1CCC2(CCCN(CC3CC3)C2=O)C1 (configuration not stated) | -1.266 | -8.905 | 4.08 | -29.15
CC(C)OCCSc1nnnn1C1CCOCC1 | - | -6.117 | 20.78 | -11.63
CCN(CCNCc1cccc(C#N)c1)C1CC1 | 5.251 | 0.7787 | -11.53 | -7.158
CS(=O)(=O)CCC(=O)NC(Cc1ccccc1)C1CC1 (configuration not stated) | -2.266 | 1.243 | -46.62 | 70.04

3 of the entries, repeated:

| Compound | Toxoplasma | ClpP1P2 | Leishmania in macrophages | T. brucei |
|---|---|---|---|---|
| `CCC(C)CNc1ccc2oc(COC)nc2c1` (configuration not stated) | -0.8633 | 20.67 | -12.1 | 94.42 |
| `Cc1nn(C)c(C)c1C1CCCN1C(=O)CCCc1ccccn1` (configuration not stated) | 17.21 | 5.701 | 23.13 | - |
| `Cc1nonc1CN(C)Cc1nc(-c2ccccc2Cl)oc1C` | 5.885 | -6.484 | 9.501 | -0.4355 |